Data from patent US20130029981A1, “COMPOUNDS, COMPOSITIONS, AND METHODS FOR CONTROLLING BIOFILMS” (Katholieke Universiteit Leuven, priority 2009, published 2013).
For at least one compound, name, drawing or mass did not settle the structure.

Experiments:
[1] = tested on: Pseudomonas aeruginosa PA14; experiment: Bioscreen assay: influence on planktonic growth curve; type: cell-based; settings: 25° C.
From the text: (§1) Some of the tested compounds show a concentration range in which biofilm formation is inhibited but no effect on planktonic growth is observed. These compounds are particularly interesting for prevention of biofilm formation since the development of resistance against these compounds is less likely. Table 8 indicates whether the different compounds have an effect on the planktonic growth of the bacteria at the IC50 for biofilm inhibition. To construct Table 8, the effect of the tested compounds on the growth curve of the bacteria was determined at a concentration equal to the IC50 for biofilm inhibition, by using the Bioscreen system available from Oy Growth Curves Ab Ltd). The Bioscreen device from Oy Growth Curves Ab Ltd was used for measuring the influence of the chemical compounds on the planktonic growth of Salmonella Typhimurium and Pseudomonas aeruginosa. The Bioscreen is a computer controlled incubator/reader/shaker that uses 10×10 well microtiter plates and measures light absorbance of each well at a specified wave length in function of time. An overnight culture of S. […] The broth used was TSB 1/20 for the experiments at 16° C. and 25° C. For experiments at 37° C. CFA medium was used for S. […] As a control 3 μl of the appropriate solvent (DMSO or EtOH) was also added to the plate in 3- or 4-fold. The microtiter plate was incubated in the Bioscreen device at 16° C., 25° C. or 37° C. for at least 36 hours, with continious medium shaking. The absorbance of each well was measured at 600 nm each 15 minutes. Excel was used to generate the growth curves for treated the treated wells and the untreated control wells. Some of the compounds show a concentration range in which biofilm formation is inhibited but no effect on the planktonic growth is observed. Table 14 indicates if the different compounds have an effect on the planktonic growth of the bacteria at the IC50 for biofilm inhibition. To construct this table the effect of the compounds on the growth curve of the bacteria was determined at a concentration equal to the IC50 for biofilm inhibtion, by using the Bioscreen system from Oy Growth Curves Ab Ltd.

S. Typhimurium ATCC14028 = experiment: as above; type: cell-based, Salmonella Typhimurium; settings: 25° C.
From the text: as §1

SMILES: Nc1nc(-c2ccccc2)c[nH]1 [Compound 81]
- Effect on growth at: 80 μM (P. aeruginosa) [1]: −
- Effect on growth at: 40 μM (S. Typhimurium) (S. Typhimurium ATCC14028): −
- Effect on growth at: 150 μM (S. Typhimurium) (S. Typhimurium ATCC14028; 150 μM): −

SMILES: CCCCNc1nc(-c2ccccc2)c[nH]1 [Compound 83]
- Effect on growth at: 40 μM (S. Typhimurium) (S. Typhimurium ATCC14028): −

SMILES: CC(C)CNc1nc(-c2ccccc2)c[nH]1 [Compound 84]
- Effect on growth at: 5 μM (P. aeruginosa) [1]: −
- Effect on growth at: 20 μM (S. Typhimurium) (S. Typhimurium ATCC14028): −
- Effect on growth at: 40 μM (S. Typhimurium) (S. Typhimurium ATCC14028): −

SMILES: Nc1nc(-c2ccc(Cl)cc2)c[nH]1 [Compound 85]
- Effect on growth at: 5 μM (P. aeruginosa) [1]: −
- Effect on growth at: 5 μM (S. Typhimurium) (S. Typhimurium ATCC14028): −
- Effect on growth at: 40 μM (S. Typhimurium) (S. Typhimurium ATCC14028): −

SMILES: CC(C)CNc1nc(-c2ccc(Cl)cc2)c[nH]1 [Compound 86]
- Effect on growth at: 5 μM (P. aeruginosa) [1]: −
- Effect on growth at: 20 μM (S. Typhimurium) (S. Typhimurium ATCC14028): −
- Effect on growth at: 40 μM (S. Typhimurium) (S. Typhimurium ATCC14028): +

SMILES: Nc1nc(-c2ccc([N+](=O)[O-])cc2)c[nH]1 [Compound 90]
- Effect on growth at: 40 μM (P. aeruginosa) [1]: −
- Effect on growth at: 100 μM (P. aeruginosa) ([1]; 100 μM): +
- Effect on growth at: 10 μM (S. Typhimurium) (S. Typhimurium ATCC14028): −
- Effect on growth at: 25 μM (S. Typhimurium) (S. Typhimurium ATCC14028): −

SMILES: CNc1nc(-c2ccc([N+](=O)[O-])cc2)c[nH]1 [Compound 91]
- Effect on growth at: 80 μM (P. aeruginosa) [1]: −

SMILES: CCCCNc1ncc(-c2ccc([N+](=O)[O-])cc2)[nH]1 [Compound 93]
- Effect on growth at: 80 μM (S. Typhimurium) (S. Typhimurium ATCC14028): −

SMILES: CC(C)CNc1ncc(-c2ccc([N+](=O)[O-])cc2)[nH]1 [Compound 94]
- Effect on growth at: 20 μM (P. aeruginosa) [1]: −
- Effect on growth at: 20 μM (S. Typhimurium) (S. Typhimurium ATCC14028): −
- Effect on growth at: 40 μM (S. Typhimurium) (S. Typhimurium ATCC14028): −

SMILES: CCCCCCCCNc1ncc(-c2ccc([N+](=O)[O-])cc2)[nH]1 [Compound 95]
- Effect on growth at: 10 μM (S. Typhimurium) (S. Typhimurium ATCC14028): −
- Effect on growth at: 40 μM (S. Typhimurium) (S. Typhimurium ATCC14028): −
- Effect on growth at: 80 μM (S. Typhimurium) (S. Typhimurium ATCC14028): −

SMILES: Nc1ncc(-c2ccc(F)cc2)[nH]1 [Compound 96]
- Effect on growth at: 40 μM (P. aeruginosa) [1]: −
- Effect on growth at: 5 μM (S. Typhimurium) (S. Typhimurium ATCC14028): −
- Effect on growth at: 40 μM (S. Typhimurium) (S. Typhimurium ATCC14028): −
- Effect on growth at: 200 μM (S. Typhimurium) (S. Typhimurium ATCC14028; 200 μM): −

SMILES: CNc1ncc(-c2ccc(F)cc2)[nH]1 [Compound 97]
- Effect on growth at: 40 μM (P. aeruginosa) [1]: −

SMILES: CCCCNc1ncc(-c2ccc(F)cc2)[nH]1 [Compound 98]
- Effect on growth at: 40 μM (P. aeruginosa) [1]: −
- Effect on growth at: 40 μM (S. Typhimurium) (S. Typhimurium ATCC14028): −
- Effect on growth at: 80 μM (S. Typhimurium) (S. Typhimurium ATCC14028): −

SMILES: Nc1ncc(-c2ccc(Br)cc2)[nH]1 [Compound 101]
- Effect on growth at: 5 μM (P. aeruginosa) [1]: −
- Effect on growth at: 10 μM (P. aeruginosa) ([1]; 10 μM): −
- Effect on growth at: 40 μM (P. aeruginosa) [1]: +
- Effect on growth at: 5 μM (S. Typhimurium) (S. Typhimurium ATCC14028): −
- Effect on growth at: 40 μM (S. Typhimurium) (S. Typhimurium ATCC14028): −

SMILES: CCCCNc1ncc(-c2ccc(Br)cc2)[nH]1 [Compound 102]
- Effect on growth at: 25 μM (P. aeruginosa) [1]: −
- Effect on growth at: 10 μM (S. Typhimurium) (S. Typhimurium ATCC14028): −
- Effect on growth at: 20 μM (S. Typhimurium) (S. Typhimurium ATCC14028): −

SMILES: CC(C)CNc1ncc(-c2ccc(Br)cc2)[nH]1 [Compound 103]
- Effect on growth at: 5 μM (P. aeruginosa) [1]: −
- Effect on growth at: 25 μM (S. Typhimurium) (S. Typhimurium ATCC14028): −
- Effect on growth at: 40 μM (S. Typhimurium) (S. Typhimurium ATCC14028): +

SMILES: CCCCCNc1ncc(-c2ccc(Br)cc2)[nH]1 [Compound 104]
- Effect on growth at: 25 μM (P. aeruginosa) [1]: −
- Effect on growth at: 10 μM (S. Typhimurium) (S. Typhimurium ATCC14028): −
- Effect on growth at: 25 μM (S. Typhimurium) (S. Typhimurium ATCC14028): +
- Effect on growth at: 40 μM (S. Typhimurium) (S. Typhimurium ATCC14028): +

SMILES: CCCCNc1ncc(-c2ccc(OC)cc2)[nH]1 [Compound 107]
- Effect on growth at: 80 μM (P. aeruginosa) [1]: −
- Effect on growth at: 40 μM (S. Typhimurium) (S. Typhimurium ATCC14028): −
- Effect on growth at: 80 μM (S. Typhimurium) (S. Typhimurium ATCC14028): −
- Effect on growth at: 100 μM (S. Typhimurium) (S. Typhimurium ATCC14028): −

SMILES: CCCNc1ncc(-c2ccc(Cl)c(Cl)c2)[nH]1 [Compound 109]
- Effect on growth at: 20 μM (S. Typhimurium) (S. Typhimurium ATCC14028): −
- Effect on growth at: 25 μM (S. Typhimurium) (S. Typhimurium ATCC14028): −

SMILES: CCCCCNc1ncc(-c2ccc(Cl)c(Cl)c2)[nH]1 [Compound 110]
- Effect on growth at: 5 μM (P. aeruginosa) [1]: −
- Effect on growth at: 25 μM (S. Typhimurium) (S. Typhimurium ATCC14028): +

SMILES: CNc1ncc(-c2ccc(O)cc2)[nH]1 [Compound 113]
- Effect on growth at: 100 μM (S. Typhimurium) (S. Typhimurium ATCC14028): −

SMILES: CCCCCCCCNc1ncc(-c2ccc(S(C)(=O)=O)cc2)[nH]1 [Compound 116]
- Effect on growth at: 20 μM (P. aeruginosa) [1]: −
- Effect on growth at: 40 μM (S. Typhimurium) (S. Typhimurium ATCC14028): −
- Effect on growth at: 80 μM (S. Typhimurium) (S. Typhimurium ATCC14028): −
